# Data published in patent US11607466B2, “Tumor and immune cell imaging based on PD-L1 expression” (The Johns Hopkins University, priority 2016, dated 2023).
# Sequences of proteins named here, by UniProt entry; tags and fusion partners are left off. Residues count along the entry.
# UniProt Q9NZQ7, 19-239 limits assumed: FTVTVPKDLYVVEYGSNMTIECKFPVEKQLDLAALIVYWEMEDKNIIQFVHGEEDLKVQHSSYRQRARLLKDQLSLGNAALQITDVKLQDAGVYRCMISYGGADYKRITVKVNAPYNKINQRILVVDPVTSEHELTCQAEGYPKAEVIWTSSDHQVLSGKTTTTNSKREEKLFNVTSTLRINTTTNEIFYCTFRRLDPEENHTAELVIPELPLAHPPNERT
# For at least one compound, name, drawing or mass did not settle the structure.
# Molecular target: T1, PD-L1 binding to PD-1 (Homo sapiens, UniProt Q9NZQ7)
# T1 construct: purchased R&D systems (Minneapolis, Minn.) 9049-B7 (PD-L1-His); 1086-PD-050 (PD-1 Fc chimera)
# Test: PD-L1 and PD-1 binding inhibition assay (FRET competitive inhibition)
compound,measurement,setting,value
"CCCC[C@H]1C(=O)N(C)[C@@H](CCCC)C(=O)N[C@@H](CCCNC(=O)CCC(C(=O)O)N2CCN(CC(=O)O)CCN(CC(=O)O)CCN(CC(=O)O)CC2)C(=O)N[C@H](C(=O)NCC(N)=O)CSCC(=O)N[C@@H](Cc2ccc(O)cc2)C(=O)N(C)[C@@H](C)C(=O)N[C@@H](CC(N)=O)C(=O)N2CCC[C@H]2C(=O)N[C@@H](Cc2c[nH]cn2)C(=O)N[C@@H](CC(C)C)C(=O)N2C[C@H](O)C[C@H]2C(=O)N[C@@H](Cc2c[nH]c3ccccc23)C(=O)N[C@@H](CO)C(=O)N[C@@H](Cc2cn(C)c3ccccc23)C(=O)N1C (single isomer, unassigned) [WL12D]",Ki,"Cheng-Prusoff, KD=70 nM, PD-L1 80 nM",10.4 nM
same,IC50,"inhibition of PD-L1 interaction with PD-1, FRET",22.2 nM
